The results in this text go back to patent publication US4301151 (dated 1981).

The series can be described thus: general procedure: hybrid (solid and solution phase) peptide synthesis; BOC-Tyr hydroxysuccinimide ester.

As for “BOC-Tyr-2-[R-(3-amino-2-oxo-1-azepine)acetic acid]-Phe-Met-NH2”, under “coupling step”, the step yield worked out at 55%. Still for that read-out and setting: to “BOC-Tyr-2-[R-(3-amino-2-oxo-1-pyrrolidine)acetic acid]-Phe-Met-NH2” belongs 81%. Consider “H-Tyr-2-[R-(2-oxo-1-azepine)acetic acid]-Phe-Met-NH2”, for which the step yield (late stage modification step, cyclic) stood at 58%. Take “H-Tyr-2-[R-(3-amino-2-oxo-1-pyrrolidine)acetic acid]-Phe-Met-NH2 hydrochloride”: where the note is “late stage modification step, hydrochloride, cyclic”, the step yield is 82%.
